The target of the series is T1, TipR (Caulobacter crescentus NA1000) (UniProt A0A0H3C6G9).
T1 sequence (looked up, limits assumed): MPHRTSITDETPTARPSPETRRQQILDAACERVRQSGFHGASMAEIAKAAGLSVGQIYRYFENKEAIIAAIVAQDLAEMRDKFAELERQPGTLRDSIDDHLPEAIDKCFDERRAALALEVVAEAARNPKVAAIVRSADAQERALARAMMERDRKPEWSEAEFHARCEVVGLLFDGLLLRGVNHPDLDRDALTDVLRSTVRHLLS
Put plainly: EMSA. Conditions: EMSA: 40 mM Tris-HCl pH 7.6, 60 mM KCl, 0.1% glycerol, 240 ug calf DNA, 800 ug BSA, 100-200 ng probe, 30 min room temperature, 4% native TBE acrylamide gel, recombinant protein, protein details: untagged, label: Cy5, probe letters rebuilt from the primers and the genome.

The exact form of at least one protein or probe is not confirmed. No signal at the amounts used counts as a negative. Protein sequences can lack the tags named with them. A weaker result is weaker than the reference pair of the same experiment.

Regarding “ATGTTGCGCCAGAAGGACATGGGTCGCCTCGAAACCAGCAACGGACAGGAGAGATACGCACGACAAAGCGACCGGATCACCTCATTCCGCGCTTCTAGCACAATGAGAATGATCGTTCACATGACTTTAGTGCAATGCGGCGAGAGCCCGCACCAATACCGCCAAGGAGCCGAACGCGCTTCGAGTGGCTATGGCTCCGCTTGGCGGCCGATACGGCGCCGCCACGCAACGGTCCCAATCCGGATCGAAATGCTCTAGTGACGACACCTGACAACAAAAAGGACCTCCGCCGCATGGCGAACGCCCTCTTCCTA (double strand) [PdjlA]”, where the note is “1.125-18 uM TipR”, the binding result is recorded as “binds”.
Consider “GGCGGCGAGTCCCACGGTCGTCGCCGCGACCGAGCGTTGGAAATGCATGTTTGACCCCGGGAGGCGAGGGTCGCGCGGGCTCTTACCCTTGACGCGGCCACTATGATGAACGATTTGAGAATGAACGTTCATTCTCATGTGGGCTGGACATAAGAGCTGGAGTGTCGCAAGTCAACCTCCGGCGCCGCGCGTTTGGCTGACCTAACGGAAATGTAATGCCGCACAGGACTTC (double strand) [PacrA]”, for which the binding result is, setting by setting: (crystal violet, 8 uM TipR, less efficient than EtBr or MG) “binds more weakly”; (ethidium bromide, 8 uM TipR, interferes) “binds more weakly”; (malachite green, 8 uM TipR, interferes) “binds more weakly”; (rhodamine 6G, 8 uM TipR, less efficient than EtBr or MG) “binds more weakly”.
For “TACCACGCGAAGGTCCATGTCGAGGGCCTGCGGCGCCTGGGTCCCTCGCCGATCCATCGGCTGGGCTGGGCCCCGGTGAAGGCGGCTCTGGCGGCGGCGGCGGTCAACGGCGAGCTAGACCTTTGAACGTCTTCAACTTTTGAGTCTGATCAGACTCAAAAGCGCCTGAAAGGCCGTGGTTAACGGCCCGCTAACCACGTCTCTCAACACCGGATTTACCAGGAAGACTCATGATTCCGCTCTCTTTCTTGAGGACGTGGGACCATGAAGTTCGGGCCGGAAACCATCATCCACGGCGACTGCATCGAGCAGATGAACGC (double strand) [PccrM]”, under “1.125-18 uM TipR”, the binding result is recorded as “no binding”.

Values taken from PMC10754441.
